Measured values as given in patent US20250269036A1, “METHODS FOR ENHANCEMENT OF ENGINEERED CELL THERAPIES IN CANCER TREATMENT” (PURDUE RESEARCH FOUNDATION, priority 2021, published 2025).
At least one compound was matched to its structure with a doubt left.

Tested on: IL-4, IL-6 plus IL-13 stimulated THP-1 cells (M2-like macrophages)
Test: Reprogramming of M2-polarized THP-1 macrophages, marker mRNA by qPCR
Type: cell-based, human
Experimental: THP-1 cells were initially selected as a model system because this human monocytic cell line is known to acquire an M2-like phenotype and produce significant quantities of anti-inflammatory cytokines upon stimulation with IL-4, IL-6 plus IL-13.
THP-1 cells were seeded into 96-well plates at a density of 60,000 cells/well. Cells were differentiated into unpolarized macrophages by 48 hours incubation with 200 nM PMA followed by 24 hours incubation in fresh RPMI medium. […] Cultures were maintained at 37° C. in a humidified 5% CO2 incubator.
Total RNA was isolated from 1×10^5-2×10^5 macrophages using a Quick-RNATM MicroPrep kit (Zymo Research, Irvine, CA) according to the manufacturer-recommended protocol. […] IL-6, CXCL10, IFNα, IFN-γ and CD86 were used as markers for an M1 phenotype, while CCL18, CD206, CD163 and Arg1 were employed as markers for the M2 phenotype. IL-1β, PDGFβ, MMP9 and TIMP 3 were measured as indicators of an anti-inflammatory phenotype. IRAK-4 was used as an indicator of TLR7 stimulation. To control for specificity of the amplification products, a melting curve analysis was performed. […] Each sample was analyzed independently in triplicate for each marker.
Primarily, human monocytic (THP-1) cells were induced to the M2-like phenotype using the methods and materials previously described. In particular, THP-1 cells were seeded into 96-well plates at a density of 60,000 cells/well. Cells were differentiated into unpolarized macrophages by 48h incubation with 200 nM PMA followed by 24 hours incubation in fresh RPMI medium. The resulting macrophages were polarized to an M2-like phenotype by incubation with 20 ng/ml IL-4, 20 ng/ml IL-13, and 5 ng/mL IL-6 for 48h. Cultures were maintained at 37° C. in a humidified 5% CO2 incubator.
In addition to the nonconjugated TLR7 agonist, conjugated compounds of the present disclosure were likewise evaluated. […] The cells were subsequently harvested for gene analysis by qPCR and the relative expression of CCL18 (FIG. 14A), CD206 (FIG. 14B), and IL-1β (FIG. 14C) analyzed.

SMILES: Nc1nc2ncc(CN(C(=O)C(F)(F)F)c3ccc(C(=O)N[C@@H](CCC(=O)N[C@@H](CSSCCOC(=O)N(CCN4CCCCC4)c4ccc(Cn5c(=O)[nH]c6c(N)nc(C(F)(F)F)cc65)cn4)C(=O)O)C(=O)O)cc3)nc2c(=O)[nH]1 [Compound 2A]
- TNFα expression (proinflammatory marker) (48 hours incubation): increase
- CCL18 mRNA expression (48 hours incubation, qPCR): decrease
- IL-1β mRNA expression (48 hours incubation, qPCR): decrease
- IL-1β mRNA concentration-response (bell-shaped curve) (48 hours, different nM concentrations): inhibitory response at lower concentrations and a stimulatory response at high concentrations
